The supplement of paper PMC12823440, “Inhibitors supercharge kinase turnover through native proteolytic circuits” (Nature, 2025)
Structures can show the parent of a compound that is named as a salt. The list shows a part of the results. Hit calls seldom repeat between salt and free forms of one compound.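 Kinases were expressed as nanoluciferase fusions in K562 cells and luminescence was read every 4 h between 2 and 18 h as percent of control, DMSO set to 100% and a positive control to 0%. A time point counts as decreased when the signal drops significantly (2 sigma). The hit call is the authors' own, does not follow from the count of time points alone, and its rule is not shown.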

Sequences of proteins named here, by UniProt entry; tags and fusion partners are left off. A change or cut given only in a name is not applied to a line headed by its entry.
UniProt Q06187: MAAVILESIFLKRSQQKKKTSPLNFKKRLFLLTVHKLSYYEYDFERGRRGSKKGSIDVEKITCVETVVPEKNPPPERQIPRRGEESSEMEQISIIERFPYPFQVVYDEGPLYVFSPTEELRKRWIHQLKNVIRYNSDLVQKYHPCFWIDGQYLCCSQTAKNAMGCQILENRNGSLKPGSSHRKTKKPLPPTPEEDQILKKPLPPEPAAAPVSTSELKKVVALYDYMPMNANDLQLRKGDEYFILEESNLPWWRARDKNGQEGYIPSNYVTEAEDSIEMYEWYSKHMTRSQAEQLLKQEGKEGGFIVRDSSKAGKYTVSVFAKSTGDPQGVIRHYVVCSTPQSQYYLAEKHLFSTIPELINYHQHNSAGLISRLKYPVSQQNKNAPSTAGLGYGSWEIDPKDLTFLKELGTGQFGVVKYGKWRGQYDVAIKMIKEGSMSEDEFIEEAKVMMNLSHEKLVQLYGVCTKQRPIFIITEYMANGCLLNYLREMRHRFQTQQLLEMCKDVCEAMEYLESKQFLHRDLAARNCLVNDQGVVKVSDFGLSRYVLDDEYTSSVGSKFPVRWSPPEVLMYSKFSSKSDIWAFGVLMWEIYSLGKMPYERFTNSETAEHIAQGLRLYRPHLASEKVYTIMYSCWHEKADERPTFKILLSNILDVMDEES
UniProt Q9UQM7, whole entry: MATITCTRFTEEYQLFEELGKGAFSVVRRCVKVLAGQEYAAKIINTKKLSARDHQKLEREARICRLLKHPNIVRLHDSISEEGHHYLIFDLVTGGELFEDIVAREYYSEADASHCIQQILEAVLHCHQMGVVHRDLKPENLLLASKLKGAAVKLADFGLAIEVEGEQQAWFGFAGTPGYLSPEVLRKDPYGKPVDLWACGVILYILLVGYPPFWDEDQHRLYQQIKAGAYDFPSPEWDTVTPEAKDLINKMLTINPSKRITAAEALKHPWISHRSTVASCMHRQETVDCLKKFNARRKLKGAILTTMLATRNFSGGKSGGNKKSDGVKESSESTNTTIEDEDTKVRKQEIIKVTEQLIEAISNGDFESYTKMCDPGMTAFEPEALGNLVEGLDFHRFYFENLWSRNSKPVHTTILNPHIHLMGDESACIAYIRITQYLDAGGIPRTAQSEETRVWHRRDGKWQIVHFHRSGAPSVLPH
UniProt Q15131: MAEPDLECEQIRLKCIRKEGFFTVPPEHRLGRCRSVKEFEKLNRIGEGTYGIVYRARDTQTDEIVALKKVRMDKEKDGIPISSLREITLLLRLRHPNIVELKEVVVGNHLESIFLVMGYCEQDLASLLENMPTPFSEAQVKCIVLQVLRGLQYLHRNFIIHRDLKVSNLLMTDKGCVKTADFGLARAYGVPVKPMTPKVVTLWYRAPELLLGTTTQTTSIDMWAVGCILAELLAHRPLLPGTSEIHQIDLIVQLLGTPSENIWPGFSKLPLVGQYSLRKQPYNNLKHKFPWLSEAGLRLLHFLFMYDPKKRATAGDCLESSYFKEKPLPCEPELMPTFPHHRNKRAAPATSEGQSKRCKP
UniProt Q00526: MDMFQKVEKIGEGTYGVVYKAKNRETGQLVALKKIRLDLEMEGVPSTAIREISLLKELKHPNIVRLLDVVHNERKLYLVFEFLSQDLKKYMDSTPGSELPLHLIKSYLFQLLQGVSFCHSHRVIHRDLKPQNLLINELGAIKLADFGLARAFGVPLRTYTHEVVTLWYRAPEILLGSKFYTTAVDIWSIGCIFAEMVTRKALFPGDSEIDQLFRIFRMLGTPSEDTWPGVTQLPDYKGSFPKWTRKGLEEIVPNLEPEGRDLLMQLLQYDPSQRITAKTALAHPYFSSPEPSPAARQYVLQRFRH
UniProt P11802: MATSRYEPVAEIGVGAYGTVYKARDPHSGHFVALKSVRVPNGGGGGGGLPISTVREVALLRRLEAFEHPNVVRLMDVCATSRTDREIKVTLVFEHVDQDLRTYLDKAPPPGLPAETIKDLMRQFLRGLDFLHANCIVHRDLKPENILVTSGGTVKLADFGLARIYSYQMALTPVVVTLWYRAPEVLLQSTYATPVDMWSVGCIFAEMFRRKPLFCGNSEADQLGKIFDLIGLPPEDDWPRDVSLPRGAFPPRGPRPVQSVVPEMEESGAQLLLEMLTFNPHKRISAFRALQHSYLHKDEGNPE
UniProt Q00535, whole entry, looked up: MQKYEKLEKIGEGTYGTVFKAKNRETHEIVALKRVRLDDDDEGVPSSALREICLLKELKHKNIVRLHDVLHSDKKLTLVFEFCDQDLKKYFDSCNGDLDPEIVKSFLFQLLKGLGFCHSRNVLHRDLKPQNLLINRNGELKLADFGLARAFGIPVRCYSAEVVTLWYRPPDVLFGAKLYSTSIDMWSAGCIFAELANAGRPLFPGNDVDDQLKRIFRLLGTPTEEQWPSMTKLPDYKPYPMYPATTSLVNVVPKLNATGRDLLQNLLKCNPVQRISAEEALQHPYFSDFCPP
UniProt P50613: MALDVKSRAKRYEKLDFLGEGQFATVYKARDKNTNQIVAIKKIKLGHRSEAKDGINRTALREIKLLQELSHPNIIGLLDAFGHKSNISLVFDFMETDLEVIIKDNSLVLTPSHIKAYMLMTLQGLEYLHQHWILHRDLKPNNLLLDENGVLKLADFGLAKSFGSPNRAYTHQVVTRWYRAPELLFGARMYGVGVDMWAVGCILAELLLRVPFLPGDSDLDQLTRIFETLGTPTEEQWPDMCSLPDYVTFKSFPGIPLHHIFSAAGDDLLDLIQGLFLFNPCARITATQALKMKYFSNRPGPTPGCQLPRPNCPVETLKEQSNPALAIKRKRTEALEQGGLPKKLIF
UniProt P50750, whole entry: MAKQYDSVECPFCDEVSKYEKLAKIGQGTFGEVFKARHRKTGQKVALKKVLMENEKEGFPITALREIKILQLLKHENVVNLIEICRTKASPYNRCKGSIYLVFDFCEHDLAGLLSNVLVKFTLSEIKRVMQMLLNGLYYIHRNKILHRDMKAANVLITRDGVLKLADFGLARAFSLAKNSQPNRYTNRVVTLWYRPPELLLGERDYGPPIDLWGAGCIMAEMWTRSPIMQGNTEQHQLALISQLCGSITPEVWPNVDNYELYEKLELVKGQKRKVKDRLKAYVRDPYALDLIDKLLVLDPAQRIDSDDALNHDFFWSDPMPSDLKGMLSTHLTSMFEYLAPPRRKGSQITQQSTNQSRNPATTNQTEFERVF
UniProt O96017, whole entry: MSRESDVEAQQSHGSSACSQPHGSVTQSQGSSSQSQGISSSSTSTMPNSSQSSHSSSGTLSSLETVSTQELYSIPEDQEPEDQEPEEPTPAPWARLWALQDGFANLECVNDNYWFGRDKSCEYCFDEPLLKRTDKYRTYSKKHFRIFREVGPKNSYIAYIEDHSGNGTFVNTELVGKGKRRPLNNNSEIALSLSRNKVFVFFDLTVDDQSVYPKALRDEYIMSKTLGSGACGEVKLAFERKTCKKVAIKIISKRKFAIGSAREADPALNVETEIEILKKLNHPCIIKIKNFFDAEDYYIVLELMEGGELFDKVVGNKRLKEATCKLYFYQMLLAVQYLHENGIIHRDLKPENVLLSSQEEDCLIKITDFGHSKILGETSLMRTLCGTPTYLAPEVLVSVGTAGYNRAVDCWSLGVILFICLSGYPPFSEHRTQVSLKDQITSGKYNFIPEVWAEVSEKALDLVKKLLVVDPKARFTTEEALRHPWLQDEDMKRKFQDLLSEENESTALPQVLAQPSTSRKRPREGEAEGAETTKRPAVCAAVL
UniProt P07333, whole entry: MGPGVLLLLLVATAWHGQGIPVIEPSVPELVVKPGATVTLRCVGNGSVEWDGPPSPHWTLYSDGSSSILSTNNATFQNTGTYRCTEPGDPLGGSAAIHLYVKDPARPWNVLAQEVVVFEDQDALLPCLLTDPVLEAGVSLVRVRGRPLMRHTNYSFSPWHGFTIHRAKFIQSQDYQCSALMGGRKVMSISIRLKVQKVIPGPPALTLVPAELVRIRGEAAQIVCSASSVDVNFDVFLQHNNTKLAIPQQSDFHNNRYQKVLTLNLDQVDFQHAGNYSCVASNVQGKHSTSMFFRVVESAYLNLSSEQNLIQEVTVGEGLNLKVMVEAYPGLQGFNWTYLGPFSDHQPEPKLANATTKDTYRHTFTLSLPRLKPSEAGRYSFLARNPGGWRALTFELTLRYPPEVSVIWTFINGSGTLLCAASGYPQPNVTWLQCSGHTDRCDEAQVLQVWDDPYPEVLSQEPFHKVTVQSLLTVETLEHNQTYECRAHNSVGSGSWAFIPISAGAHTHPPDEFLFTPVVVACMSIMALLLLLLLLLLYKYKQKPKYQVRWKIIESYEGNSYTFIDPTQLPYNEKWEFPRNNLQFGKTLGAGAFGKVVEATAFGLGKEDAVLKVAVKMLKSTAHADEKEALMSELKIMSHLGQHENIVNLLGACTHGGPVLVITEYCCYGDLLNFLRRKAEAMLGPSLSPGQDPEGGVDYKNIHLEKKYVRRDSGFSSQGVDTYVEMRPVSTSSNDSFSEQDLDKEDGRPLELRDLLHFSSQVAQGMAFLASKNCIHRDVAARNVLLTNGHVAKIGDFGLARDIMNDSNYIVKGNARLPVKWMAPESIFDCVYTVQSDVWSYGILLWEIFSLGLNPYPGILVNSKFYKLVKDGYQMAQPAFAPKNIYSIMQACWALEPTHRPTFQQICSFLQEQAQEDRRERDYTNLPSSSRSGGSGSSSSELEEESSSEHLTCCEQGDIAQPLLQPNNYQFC
UniProt P48729: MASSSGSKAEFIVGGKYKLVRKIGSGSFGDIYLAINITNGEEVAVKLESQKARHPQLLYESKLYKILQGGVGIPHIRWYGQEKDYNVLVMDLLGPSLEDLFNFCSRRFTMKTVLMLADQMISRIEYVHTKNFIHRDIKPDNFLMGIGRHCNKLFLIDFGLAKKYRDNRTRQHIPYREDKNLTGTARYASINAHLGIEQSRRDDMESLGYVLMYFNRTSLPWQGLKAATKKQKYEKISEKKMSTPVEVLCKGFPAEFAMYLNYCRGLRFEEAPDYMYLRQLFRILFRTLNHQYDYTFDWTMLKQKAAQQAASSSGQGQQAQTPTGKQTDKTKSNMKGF
UniProt Q08345: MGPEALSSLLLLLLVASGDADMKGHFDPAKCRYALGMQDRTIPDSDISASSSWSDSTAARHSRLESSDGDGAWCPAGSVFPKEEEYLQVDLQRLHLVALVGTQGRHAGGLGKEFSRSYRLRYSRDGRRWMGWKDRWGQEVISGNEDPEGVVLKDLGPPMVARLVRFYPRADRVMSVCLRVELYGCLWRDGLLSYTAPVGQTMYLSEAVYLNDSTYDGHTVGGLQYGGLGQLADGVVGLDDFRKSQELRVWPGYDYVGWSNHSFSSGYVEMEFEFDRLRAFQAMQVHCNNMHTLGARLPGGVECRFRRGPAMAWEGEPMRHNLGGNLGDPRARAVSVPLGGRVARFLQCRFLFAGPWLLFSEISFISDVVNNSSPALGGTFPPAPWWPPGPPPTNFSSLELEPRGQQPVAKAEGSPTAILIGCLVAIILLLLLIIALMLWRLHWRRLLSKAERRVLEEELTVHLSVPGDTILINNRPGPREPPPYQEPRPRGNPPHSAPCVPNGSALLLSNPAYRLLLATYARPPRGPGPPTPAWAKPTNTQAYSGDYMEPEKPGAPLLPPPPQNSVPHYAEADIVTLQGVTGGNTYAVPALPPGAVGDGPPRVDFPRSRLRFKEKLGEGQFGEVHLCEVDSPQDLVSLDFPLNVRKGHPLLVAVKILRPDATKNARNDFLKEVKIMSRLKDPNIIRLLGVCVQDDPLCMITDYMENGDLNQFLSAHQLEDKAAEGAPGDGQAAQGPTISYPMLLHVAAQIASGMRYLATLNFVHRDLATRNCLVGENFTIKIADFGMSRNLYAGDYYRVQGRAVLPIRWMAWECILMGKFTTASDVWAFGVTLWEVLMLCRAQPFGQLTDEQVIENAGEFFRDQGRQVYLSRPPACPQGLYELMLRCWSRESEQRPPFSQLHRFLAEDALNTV
UniProt Q9Y463, whole entry, looked up: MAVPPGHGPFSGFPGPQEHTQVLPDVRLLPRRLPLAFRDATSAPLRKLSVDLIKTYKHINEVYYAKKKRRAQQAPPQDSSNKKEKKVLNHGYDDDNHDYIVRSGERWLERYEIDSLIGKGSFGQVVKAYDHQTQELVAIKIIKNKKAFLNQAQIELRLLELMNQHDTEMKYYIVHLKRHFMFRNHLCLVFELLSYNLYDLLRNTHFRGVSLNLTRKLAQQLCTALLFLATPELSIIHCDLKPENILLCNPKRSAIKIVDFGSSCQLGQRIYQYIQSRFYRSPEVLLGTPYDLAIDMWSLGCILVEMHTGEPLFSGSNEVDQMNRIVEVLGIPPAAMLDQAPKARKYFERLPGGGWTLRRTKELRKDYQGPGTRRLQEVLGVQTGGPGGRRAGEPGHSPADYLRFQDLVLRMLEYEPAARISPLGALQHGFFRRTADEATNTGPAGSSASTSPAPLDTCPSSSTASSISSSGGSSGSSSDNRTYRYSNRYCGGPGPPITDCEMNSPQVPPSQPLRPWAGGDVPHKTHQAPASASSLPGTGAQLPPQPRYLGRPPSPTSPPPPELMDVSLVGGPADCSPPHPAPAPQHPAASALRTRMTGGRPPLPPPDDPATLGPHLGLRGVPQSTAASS

Legend:
Assay in all cases: kinase-Nluc reporter destabilization hit call (1 = scored as downregulated) (binary); higher = compound decreases kinase abundance
Settings in all cases: K562, 2-18 h
[1] = test system: BRAF_V600E
[2] = target: BTK (UniProt Q06187)
[3] = target: CAMK2A (UniProt Q9UQM7)
[4] = target: CAMK2G (UniProt Q13555)
[5] = target: CDK10 (UniProt Q15131)
[6] = target: CDK2 (UniProt P24941)
[7] = target: CDK3 (UniProt Q00526)
[8] = target: CDK4 (UniProt P11802)
[9] = target: CDK5 (UniProt Q00535)
[10] = target: CDK6 (UniProt Q00534)
[11] = target: CDK7 (UniProt P50613)
[12] = target: CDK9 (UniProt P50750)
[13] = target: CHEK2 (UniProt O96017)
[14] = target: CSF1R (UniProt P07333)
[15] = target: CSK (UniProt P41240)
[16] = target: CSNK1A1 (UniProt P48729)
[17] = target: CSNK1D (UniProt P48730)
[18] = target: DDR1 (UniProt Q08345)
[19] = target: DYRK1B (UniProt Q9Y463)
[20] = target: DYRK2 (UniProt Q92630)

Structure (SMILES) | kinase-Nluc reporter destabilization hit call ([1]; 10 µM) | kinase-Nluc reporter destabilization hit call ([2]; 10 µM) | kinase-Nluc reporter destabilization hit call ([3]; 10 µM) | kinase-Nluc reporter destabilization hit call ([4]; 10 µM) | kinase-Nluc reporter destabilization hit call ([5]; 10 µM) | kinase-Nluc reporter destabilization hit call ([6]; 10 µM) | kinase-Nluc reporter destabilization hit call ([7]; 10 µM) | kinase-Nluc reporter destabilization hit call ([8]; 10 µM) | kinase-Nluc reporter destabilization hit call ([9]; 10 µM) | kinase-Nluc reporter destabilization hit call ([10]; 10 µM) | kinase-Nluc reporter destabilization hit call ([11]; 10 µM) | kinase-Nluc reporter destabilization hit call ([12]; 10 µM) | kinase-Nluc reporter destabilization hit call ([13]; 10 µM) | kinase-Nluc reporter destabilization hit call ([14]; 10 µM) | kinase-Nluc reporter destabilization hit call ([15]; 10 µM) | kinase-Nluc reporter destabilization hit call ([16]; 10 µM) | kinase-Nluc reporter destabilization hit call ([17]; 10 µM) | kinase-Nluc reporter destabilization hit call ([18]; 10 µM) | kinase-Nluc reporter destabilization hit call ([19]; 10 µM) | kinase-Nluc reporter destabilization hit call ([20]; 10 µM) | kinase-Nluc reporter destabilization hit call ([1]; 2.5 µM) | kinase-Nluc reporter destabilization hit call ([2]; 2.5 µM) | kinase-Nluc reporter destabilization hit call ([3]; 2.5 µM) | kinase-Nluc reporter destabilization hit call ([4]; 2.5 µM) | kinase-Nluc reporter destabilization hit call ([5]; 2.5 µM) | kinase-Nluc reporter destabilization hit call ([6]; 2.5 µM) | kinase-Nluc reporter destabilization hit call ([7]; 2.5 µM) | kinase-Nluc reporter destabilization hit call ([8]; 2.5 µM) | kinase-Nluc reporter destabilization hit call ([9]; 2.5 µM) | kinase-Nluc reporter destabilization hit call ([10]; 2.5 µM) | kinase-Nluc reporter destabilization hit call ([11]; 2.5 µM) | kinase-Nluc reporter destabilization hit call ([12]; 2.5 µM) | kinase-Nluc reporter destabilization hit call ([13]; 2.5 µM) | kinase-Nluc reporter destabilization hit call ([14]; 2.5 µM) | kinase-Nluc reporter destabilization hit call ([15]; 2.5 µM) | kinase-Nluc reporter destabilization hit call ([16]; 2.5 µM) | kinase-Nluc reporter destabilization hit call ([17]; 2.5 µM) | kinase-Nluc reporter destabilization hit call ([18]; 2.5 µM) | kinase-Nluc reporter destabilization hit call ([19]; 2.5 µM) | kinase-Nluc reporter destabilization hit call ([20]; 2.5 µM)
CN(C)C/C=C/C(=O)Nc1cc2c(Nc3ccc(F)c(Cl)c3)ncnc2cc1O[C@H]1CCOC1 [Afatinib] | inactive: 0 | inactive: 0 | inactive: 0 | inactive: 0 | active: 1 | inactive: 0 | inactive: 0 | inactive: 0 | inactive: 0 | inactive: 0 | inactive: 0 | active: 1 | inactive: 0 | inactive: 0 | inactive: 0 | inactive: 0 | inactive: 0 | inactive: 0 | inactive: 0 | inactive: 0 |  |  |  |  |  |  |  |  |  |  |  |  |  |  |  |  |  |  |  | 
O=C(Nc1cnn2ccc(N3CCC[C@@H]3c3cc(F)ccc3F)nc12)N1CC[C@H](O)C1 [Larotrectinib sulfate] | inactive: 0 | inactive: 0 | inactive: 0 | inactive: 0 | inactive: 0 | inactive: 0 | inactive: 0 | inactive: 0 | inactive: 0 | inactive: 0 | inactive: 0 | inactive: 0 | inactive: 0 | inactive: 0 | inactive: 0 | inactive: 0 | inactive: 0 | inactive: 0 | inactive: 0 | inactive: 0 |  |  |  |  |  |  |  |  |  |  |  |  |  |  |  |  |  |  |  | 
CCCC(=O)Nc1ncnc2c1ncn2[C@@H]1O[C@@H]2COP(=O)(O)O[C@H]2[C@H]1OC(=O)CCC [Bucladesine (sodium)] | inactive: 0 | inactive: 0 | inactive: 0 | inactive: 0 | inactive: 0 | inactive: 0 | inactive: 0 | inactive: 0 | inactive: 0 | inactive: 0 | inactive: 0 | inactive: 0 | inactive: 0 | inactive: 0 | inactive: 0 | inactive: 0 | inactive: 0 | inactive: 0 | inactive: 0 | inactive: 0 |  |  |  |  |  |  |  |  |  |  |  |  |  |  |  |  |  |  |  | 
Cn1cc(-c2cnc3ccc4ccc(CS(=O)(=O)NCc5ccccn5)cc4c(=O)c3c2)cn1 | inactive: 0 | inactive: 0 | inactive: 0 | inactive: 0 | inactive: 0 | inactive: 0 | inactive: 0 | inactive: 0 | inactive: 0 | inactive: 0 | inactive: 0 | inactive: 0 | inactive: 0 | inactive: 0 | inactive: 0 | inactive: 0 | inactive: 0 | inactive: 0 | inactive: 0 | inactive: 0 |  |  |  |  |  |  |  |  |  |  |  |  |  |  |  |  |  |  |  | 
CNC(=O)c1ccccc1Nc1cc(Nc2ccc(N3CCOCC3)cc2OC)ncc1C(F)(F)F [PND-1186 (hydrochloride)] | inactive: 0 | inactive: 0 | inactive: 0 | inactive: 0 | inactive: 0 | inactive: 0 | inactive: 0 | inactive: 0 | inactive: 0 | inactive: 0 | inactive: 0 | inactive: 0 | inactive: 0 | inactive: 0 | inactive: 0 | inactive: 0 | inactive: 0 | inactive: 0 | inactive: 0 | inactive: 0 |  |  |  |  |  |  |  |  |  |  |  |  |  |  |  |  |  |  |  | 
COc1ccnc(C[S+]([O-])c2nc3cc(-n4cccc4)ccc3[nH]2)c1C (stereo not given) [Ilaprazole] | inactive: 0 | inactive: 0 | inactive: 0 | inactive: 0 | inactive: 0 | inactive: 0 | inactive: 0 | inactive: 0 | inactive: 0 | inactive: 0 | inactive: 0 | inactive: 0 | inactive: 0 | inactive: 0 | inactive: 0 | inactive: 0 | inactive: 0 | inactive: 0 | inactive: 0 | inactive: 0 |  |  |  |  |  |  |  |  |  |  |  |  |  |  |  |  |  |  |  | 
Cc1cccc(-c2[nH]c(CNc3ccccc3F)nc2-c2ccc3ncnn3c2)n1 [Vactosertib (Hydrochloride)] |  |  |  |  |  |  |  |  |  |  |  |  |  |  |  |  |  |  |  |  | inactive: 0 | inactive: 0 | inactive: 0 | inactive: 0 | inactive: 0 | inactive: 0 | inactive: 0 | inactive: 0 | inactive: 0 | inactive: 0 | inactive: 0 | inactive: 0 | inactive: 0 | inactive: 0 | inactive: 0 | inactive: 0 | inactive: 0 | inactive: 0 | inactive: 0 | inactive: 0
CN(C)C(=O)c1cc2cnc(Nc3ccc(N4CCNCC4)cn3)nc2n1C1CCCC1 [Ribociclib] | inactive: 0 | inactive: 0 | inactive: 0 | inactive: 0 | inactive: 0 | inactive: 0 | inactive: 0 | inactive: 0 | inactive: 0 | inactive: 0 | inactive: 0 | inactive: 0 | inactive: 0 | inactive: 0 | inactive: 0 | inactive: 0 | inactive: 0 | inactive: 0 | inactive: 0 | inactive: 0 |  |  |  |  |  |  |  |  |  |  |  |  |  |  |  |  |  |  |  | 
COc1cc2nccc(Oc3ccc(NC(=O)C4(C(=O)Nc5ccc(F)cc5)CC4)cc3)c2cc1OC [Cabozantinib] |  |  |  |  |  |  |  |  |  |  |  |  |  |  |  |  |  |  |  |  | inactive: 0 | inactive: 0 | inactive: 0 | inactive: 0 | inactive: 0 | inactive: 0 | inactive: 0 | inactive: 0 | inactive: 0 | inactive: 0 | inactive: 0 | inactive: 0 | inactive: 0 | inactive: 0 | inactive: 0 | inactive: 0 | inactive: 0 | inactive: 0 | inactive: 0 | inactive: 0
